Laboratory results from patent US20170327562A1.
No constants are given. Whether binding was seen depends on the method and setting. Some binding calls cover weakened binding; strength is not graded here.

Chains of the proteins cited; added tags and fusions are not shown. Lines headed by an entry give the natural chain unless they say otherwise; changes in a name come on top. Residues count along the entry.
UniProt P56199, residues 167-364: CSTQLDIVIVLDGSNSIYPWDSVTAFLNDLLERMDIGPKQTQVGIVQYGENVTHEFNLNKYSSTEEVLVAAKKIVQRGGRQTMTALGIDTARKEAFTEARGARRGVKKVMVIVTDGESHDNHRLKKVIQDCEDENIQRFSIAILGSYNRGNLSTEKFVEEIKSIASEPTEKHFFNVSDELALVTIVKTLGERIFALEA
UniProt P02454: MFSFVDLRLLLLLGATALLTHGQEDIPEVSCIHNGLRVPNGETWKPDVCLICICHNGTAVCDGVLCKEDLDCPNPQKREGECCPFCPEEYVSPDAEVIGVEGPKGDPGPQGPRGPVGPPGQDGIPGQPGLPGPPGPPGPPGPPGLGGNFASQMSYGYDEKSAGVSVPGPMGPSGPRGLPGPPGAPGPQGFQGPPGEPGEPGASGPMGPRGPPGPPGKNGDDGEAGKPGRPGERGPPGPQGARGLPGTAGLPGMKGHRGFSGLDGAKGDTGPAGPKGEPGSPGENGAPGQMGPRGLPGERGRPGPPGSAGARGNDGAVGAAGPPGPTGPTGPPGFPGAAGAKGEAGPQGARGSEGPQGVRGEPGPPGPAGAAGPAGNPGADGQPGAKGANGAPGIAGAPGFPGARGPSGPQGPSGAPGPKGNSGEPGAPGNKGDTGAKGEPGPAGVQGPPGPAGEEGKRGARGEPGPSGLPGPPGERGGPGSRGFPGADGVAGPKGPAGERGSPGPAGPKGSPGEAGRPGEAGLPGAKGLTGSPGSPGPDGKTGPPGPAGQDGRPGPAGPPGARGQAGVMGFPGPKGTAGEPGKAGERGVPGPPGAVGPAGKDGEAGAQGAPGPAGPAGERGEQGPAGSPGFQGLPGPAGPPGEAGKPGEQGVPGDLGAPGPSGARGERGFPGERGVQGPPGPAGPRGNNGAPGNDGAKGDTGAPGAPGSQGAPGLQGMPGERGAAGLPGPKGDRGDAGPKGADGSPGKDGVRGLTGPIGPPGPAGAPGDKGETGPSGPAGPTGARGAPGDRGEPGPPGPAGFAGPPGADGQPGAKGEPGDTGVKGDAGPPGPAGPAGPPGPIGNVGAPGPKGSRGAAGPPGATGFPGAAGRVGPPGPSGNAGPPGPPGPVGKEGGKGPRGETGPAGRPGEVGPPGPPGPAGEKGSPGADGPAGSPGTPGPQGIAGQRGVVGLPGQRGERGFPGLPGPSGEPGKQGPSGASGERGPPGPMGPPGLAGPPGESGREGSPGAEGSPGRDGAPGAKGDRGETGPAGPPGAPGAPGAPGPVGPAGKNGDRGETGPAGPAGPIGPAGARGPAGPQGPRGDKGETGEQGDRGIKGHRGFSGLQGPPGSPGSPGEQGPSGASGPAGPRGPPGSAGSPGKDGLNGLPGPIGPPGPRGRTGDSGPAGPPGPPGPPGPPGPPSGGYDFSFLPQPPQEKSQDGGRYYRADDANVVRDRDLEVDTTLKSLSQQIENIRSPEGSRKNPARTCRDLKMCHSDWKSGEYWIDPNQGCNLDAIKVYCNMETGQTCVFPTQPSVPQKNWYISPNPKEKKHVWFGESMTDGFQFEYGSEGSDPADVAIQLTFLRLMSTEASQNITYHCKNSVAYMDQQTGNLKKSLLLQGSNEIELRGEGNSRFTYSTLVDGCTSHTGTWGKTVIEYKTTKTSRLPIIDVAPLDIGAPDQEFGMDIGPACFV

Tests used:
[1] = biological target: recombinant integrin α1 I domain (human) (UniProt P56199); assay: ELISA based binding assay
[2] = biological target: recombinant integrin α1 I domain (human) (UniProt P56199); assay: ELISA, coated 1 µg per well, 5 µM α1 I-domains
[3] = biological target: recombinant integrin α1 I domain (human) (UniProt P56199); assay: ELISA, 5 µM recombinant α1 I-domains on coated wells, anti-his-HRP detection

Measured: binding

rat tail derived collagen type I (from UniProt P02454 152-1207; P02466 86-1125) (ligand)
binds: all assays above
